These are yes or no findings as the source states them, for the method shown. In cells and extracts the contact can be indirect. Here binding means that the protein was enriched with, or labelled near, the bait; the list need not be complete. Tags and fused reporters may be left off the sequences shown.
Biological target: T1, Glue (SBP-HA-CBP)-tagged WDTC1 (mouse) (UniProt Q80ZK9)
T1 sequence: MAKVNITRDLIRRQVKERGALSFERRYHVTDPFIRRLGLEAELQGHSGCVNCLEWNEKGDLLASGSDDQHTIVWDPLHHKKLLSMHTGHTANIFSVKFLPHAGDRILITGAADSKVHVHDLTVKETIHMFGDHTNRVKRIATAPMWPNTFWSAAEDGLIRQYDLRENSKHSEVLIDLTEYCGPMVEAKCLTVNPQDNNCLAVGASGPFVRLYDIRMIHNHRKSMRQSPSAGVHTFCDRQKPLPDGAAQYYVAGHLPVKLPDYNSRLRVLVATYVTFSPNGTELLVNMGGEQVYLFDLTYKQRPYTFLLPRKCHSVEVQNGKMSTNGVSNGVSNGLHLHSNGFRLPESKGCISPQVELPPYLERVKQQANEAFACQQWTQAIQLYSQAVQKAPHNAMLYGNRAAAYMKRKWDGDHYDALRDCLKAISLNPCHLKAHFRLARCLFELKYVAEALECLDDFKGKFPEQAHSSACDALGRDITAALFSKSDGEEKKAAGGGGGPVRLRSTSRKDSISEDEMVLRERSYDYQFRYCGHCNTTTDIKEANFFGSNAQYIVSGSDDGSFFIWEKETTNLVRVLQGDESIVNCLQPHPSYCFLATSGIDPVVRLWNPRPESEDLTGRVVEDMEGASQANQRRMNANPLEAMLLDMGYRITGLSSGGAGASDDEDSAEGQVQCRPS
Assay: affinity purification with mass spectrometry; nuclear extracts of stable HEK293T cells expressing Glue-WDTC1 or vector alone; tandem purification on Strep-Tactin beads (4°C, 1 h, desthiobiotin elution) then calmodulin beads (4°C, 3 h); silver staining and mass spectrometry; two separate experiments

Sequences of proteins named here, by UniProt entry; tags and fusion partners are left off.
UniProt Q16531: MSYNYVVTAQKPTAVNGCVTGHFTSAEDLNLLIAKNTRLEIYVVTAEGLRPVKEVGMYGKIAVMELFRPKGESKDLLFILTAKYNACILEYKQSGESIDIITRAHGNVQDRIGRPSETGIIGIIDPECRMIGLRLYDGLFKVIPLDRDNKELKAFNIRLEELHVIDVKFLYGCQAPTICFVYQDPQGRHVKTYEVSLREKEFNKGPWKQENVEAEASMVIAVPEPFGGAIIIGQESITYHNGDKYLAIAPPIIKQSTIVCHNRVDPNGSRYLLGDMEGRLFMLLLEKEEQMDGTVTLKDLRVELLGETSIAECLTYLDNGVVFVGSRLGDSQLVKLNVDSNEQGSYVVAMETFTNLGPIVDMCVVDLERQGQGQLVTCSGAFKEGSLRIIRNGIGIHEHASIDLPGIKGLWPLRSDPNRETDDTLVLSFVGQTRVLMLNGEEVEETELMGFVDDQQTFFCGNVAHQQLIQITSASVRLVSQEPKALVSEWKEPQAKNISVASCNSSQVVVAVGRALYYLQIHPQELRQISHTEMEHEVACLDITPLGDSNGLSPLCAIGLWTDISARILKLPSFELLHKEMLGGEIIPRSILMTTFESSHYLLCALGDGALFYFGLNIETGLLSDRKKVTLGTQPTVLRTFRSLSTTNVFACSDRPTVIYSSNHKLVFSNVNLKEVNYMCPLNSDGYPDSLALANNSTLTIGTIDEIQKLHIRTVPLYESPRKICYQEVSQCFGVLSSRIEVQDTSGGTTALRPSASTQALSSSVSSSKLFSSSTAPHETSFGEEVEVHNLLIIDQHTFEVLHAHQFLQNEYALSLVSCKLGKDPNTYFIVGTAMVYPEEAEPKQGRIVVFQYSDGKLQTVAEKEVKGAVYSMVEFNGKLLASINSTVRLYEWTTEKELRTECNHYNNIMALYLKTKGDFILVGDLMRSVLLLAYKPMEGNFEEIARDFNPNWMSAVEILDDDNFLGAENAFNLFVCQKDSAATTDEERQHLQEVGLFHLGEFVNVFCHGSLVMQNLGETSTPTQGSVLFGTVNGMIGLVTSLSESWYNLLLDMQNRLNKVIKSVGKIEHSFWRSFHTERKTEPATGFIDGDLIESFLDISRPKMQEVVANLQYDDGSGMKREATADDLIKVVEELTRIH

Substance | binding
DDB1 (from UniProt Q16531 1-1140) | binds
Hsp70 (human (endogenous in HEK293T)) | binds

Reference: paper PMC10483223
